# Results are given in words; binding and its absence hold for the method and conditions named. In cells and extracts the contact can be indirect. Some entries that bind do so weakly or less than the wild type. Tags and fused reporters may be left off the sequences shown.
# T1: NESG1 (cilia and flagella-associated protein 45), MYC-tagged (human) (UniProt Q9UL16)
# T1 sequence: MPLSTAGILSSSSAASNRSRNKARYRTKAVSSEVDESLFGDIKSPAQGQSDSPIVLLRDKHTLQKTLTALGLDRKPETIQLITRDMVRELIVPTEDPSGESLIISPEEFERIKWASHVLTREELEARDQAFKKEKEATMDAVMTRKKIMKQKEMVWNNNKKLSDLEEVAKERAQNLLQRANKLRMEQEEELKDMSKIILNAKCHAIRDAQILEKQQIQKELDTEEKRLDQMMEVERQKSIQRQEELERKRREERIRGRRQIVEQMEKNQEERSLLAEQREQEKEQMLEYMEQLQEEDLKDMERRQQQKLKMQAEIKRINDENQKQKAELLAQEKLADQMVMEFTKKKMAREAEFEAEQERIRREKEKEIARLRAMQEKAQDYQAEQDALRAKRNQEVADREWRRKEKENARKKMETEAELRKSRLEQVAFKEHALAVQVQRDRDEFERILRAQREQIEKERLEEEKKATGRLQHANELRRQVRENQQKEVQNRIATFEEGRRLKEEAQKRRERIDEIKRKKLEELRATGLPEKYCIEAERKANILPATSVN
# B1: vacuolar protein sorting 33B (VPS33B), HA-tagged (protein, UniProt Q9H267 1-617)
# chain: MAFPHRPDAPELPDFSMLKRLARDQLIYLLEQLPGKKDLFIEADLMSPLDRIANVSILKQHEVDKLYKVENKPALSSNEQLCFLVRPRIKNMRYIASLVNADKLAGRTRKYKVIFSPQKFYACEMVLEEEGIYGDVSCDEWAFSLLPLDVDLLSMELPEFFRDYFLEGDQRWINTVAQALHLLSTLYGPFPNCYGIGRCAKMAYELWRNLEEEEDGETKGRRPEIGHIFLLDRDVDFVTALCSQVVYEGLVDDTFRIKCGSVDFGPEVTSSDKSLKVLLNAEDKVFNEIRNEHFSNVFGFLSQKARNLQAQYDRRRGMDIKQMKNFVSQELKGLKQEHRLLSLHIGACESIMKKKTKQDFQELIKTEHALLEGFNIRESTSYIEEHIDRQVSPIESLRLMCLLSITENGLIPKDYRSLKTQYLQSYGPEHLLTFSNLRRAGLLTEQAPGDTLTAVESKVSKLVTDKAAGKITDAFSSLAKRSNFRAISKKLNLIPRVDGEYDLKVPRDMAYVFGGAYVPLSCRIIEQVLERRSWQGLDEVVRLLNCSDFAFTDMTKEDKASSESLRLILVVFLGGCTFSEISALRFLGREKGYRFIFLTTAVTNSARLMEAMSEVKA
# Biological target: T1, NESG1 (cilia and flagella-associated protein 45), MYC-tagged (human)
# Assay: co-IP; cells co-transfected with HA-VPS33B and MYC-NESG1 plasmids; Pierce Co-Immunoprecipitation Kit; 3000 ug total protein in 500 uL supernatant with 10 ug anti-HA, anti-MYC or anti-IgG antibodies, 12 h, 4 °C; western blot; anti-IgG as negative control
binder,measurement,value
B1,binding,binds
